From PubChem BioAssay AID2685 (National Center for Advancing Translational Sciences (NCATS), 2010)
The other results are listed elsewhere or left out. Shown are side measurements of this screen, not its main read-out; they come without a call. Most of these compounds were active or inconclusive in the main read-out, so they are no random draw. Potencies come from curve fits of mixed quality, noted in brackets.

Experiment: qHTS Assay for Lipid Storage Modulators in Drosophila S3 Cells;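 for cell number change: cells counted by Cell Tracker Red CMTPX staining in the red channel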
Settings: BODIPY lipid droplet fluorescence, 18-24 h; for cell number change: measured here: cell count max response, cells fed with added oleic acid
In short: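 Drosophila S3 cells loaded with oleic acid (400 uM, as added) and compounds at several concentrations; lipid droplets imaged by 488-nm laser-scanning cytometry, 500–530 nm intensity and object ratio to cell channel. Percent activity normalized to 20 uM Triacsin C.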

[1] = measured here: lipid fluorescence (Fed channel) AC50, cells fed with added oleic acid
[2] = measured here: cell number channel AC50, cells fed with added oleic acid

Structure (SMILES)	cell number change [%]	AC50 [1]	AC50 [2]
Cc1ccc(C(=O)O/N=C(\N)c2ccccn2)cc1Cl	2.05	–	–
O=C(NCCc1ccccc1)c1ccc2c(c1)OCO2	7.89	2.51 µM [rising, full curve, poor fit]	–
CCOC(=O)CSc1nnc(-c2ccc(S(=O)(=O)N3CCOCC3)cc2)n1-c1ccccc1	-108	–	23.1 µM [falling, single point]
C=C(C)CNC(=S)NNC(=O)c1ccncc1	45.3	18.4 µM [rising, single point]	29.1 µM [rising, single point]
CC(=O)Nc1ccc(C(=O)N(C)C(C(=O)Nc2ccc(C)cc2)c2ccccn2)cc1 (configuration not stated)	–	14.6 µM [rising, partial curve, poor fit]	–
C=CCn1c(SCC(=O)Nc2ncc(Cc3cc(C(F)(F)F)ccc3Cl)s2)nnc1-c1ccncc1	8.06	32.6 µM [rising, single point]	–
O=C(c1ccccc1)n1c(=O)cc[nH]c1=O	31.2	2.59 µM [rising, partial curve, poor fit]	0.164 µM [rising, full curve, poor fit]
CC1CCCCN1c1ccc(N)cc1C(N)=O (configuration not stated)	-49.9	14.6 µM [falling, partial curve]	20.6 µM [falling, single point]
CN1CCN(c2ccc(NC(=S)NC(=O)c3cccc4c(Cl)cccc34)cc2)CC1	11	0.411 µM [rising, full curve]	0.731 µM [rising, partial curve]
CN(C)S(=O)(=O)c1ccc(C(=O)NCc2nnc(SCC(=O)c3ccccc3)o2)cc1	-13	15.8 µM [falling, partial curve, poor fit]	–
Cc1cc(C(=O)OCC(=O)NCc2ccc(Cl)cc2)c(C)o1	20.4	–	–
COc1ccc(C(=O)NCc2cccs2)cc1S(=O)(=O)N1CCOCC1	–	–	1.84 µM [rising, partial curve, poor fit]
COc1ccc(N2CC(NC(=O)c3ccc4ccccc4c3)CC2=O)cc1OC (configuration not stated)	–	1.16 µM [rising, full curve]	4.61 µM [rising, single point]
COc1cc(C2C(C(=O)c3ccc(C)o3)=C(O)C(=O)N2Cc2cccnc2)ccc1O (configuration not stated)	4.1	5.8 µM [falling, single point]	6.51 µM [falling, single point]
COc1ccc(C2=NN(CCC(=O)NC3CCCCCC3)C(=O)CC2)cc1	-14.1	16.4 µM [rising, single point]	–
Cc1cccc(C(=O)N[C@H](C(=O)Nc2nc3ccc(S(C)(=O)=O)cc3s2)C(C)C)c1	4.23	0.00517 µM [falling, full curve]	–
CCOc1ccc2nc(NC(=O)C3CCN(C(=O)c4ccco4)CC3)sc2c1	18.3	–	–
O=C(c1ccccc1)c1ccc2nc(-c3ccc(NC(=O)c4ccccc4Br)cc3)[nH]c2c1	-55.5	10.3 µM [falling, partial curve]	13 µM [falling, partial curve]
Cc1cc(=O)[nH]c(N/N=C/c2ccc(-c3ccc([N+](=O)[O-])cc3)o2)n1	-9.52	–	1.16 µM [rising, partial curve]

Structure (SMILES)	cell number change [%]	AC50 [1]	AC50 [2]
COc1cccc(C(=O)N2CCCC(c3nc(-c4cccs4)no3)C2)c1 (configuration not stated)	122	–	20.6 µM [rising, single point]
CC(C)(C)c1ccc(S(=O)(=O)N2CCN(C(=O)C3CCC3)CC2)cc1	29.4	3.26 µM [rising, partial curve]	1.64 µM [rising, full curve, poor fit]
OCCNc1nc(SCc2ccccc2)nc2sc3c(c12)CCC3	4.46	–	–
CC1(C)CC(=O)C2=C(C1)OC(c1cccs1)C(C#N)=C2N (configuration not stated)	–	–	0.082 µM [falling, full curve, poor fit]
O=C(CNc1cccc(S(=O)(=O)N2CCCCCC2)c1)Nc1cccc([N+](=O)[O-])c1	–	1.84 µM [falling, partial curve]	–
COc1ccccc1-c1cc(C(F)(F)F)nc(S(C)(=O)=O)n1	-40.5	18.4 µM [falling, partial curve]	0.517 µM [falling, partial curve]
Cn1cnnc1SCC(=O)Nc1ccc(S(N)(=O)=O)cc1	6.3	29.1 µM [rising, single point]	–
COc1cccc(NC(=S)N2C3CCCC2CC(NC(=O)C2CC2)C3)c1 (configuration not stated)	10.8	–	–
Cc1ccc(-c2nn(Cc3ccccc3)cc2/C=C/C(=O)O)cc1C	109	29.1 µM [rising, single point]	18.4 µM [rising, single point]
O=C1c2cccc3cccc(c23)N1Cc1ccc(F)cc1	-16.8	–	–
CC1CCN(S(=O)(=O)c2ccc(NC(=O)Cc3ccccc3)cc2)CC1	-2.48	–	2.06 µM [rising, partial curve]
O=C(O)CN1CCN(Cc2ccccc2F)C1=O	-62.2	29.1 µM [falling, single point]	29.1 µM [falling, single point]
COc1cc(NC(=O)C(F)(F)F)cc(OC)c1	-2.86	–	–
COc1cccc(OCCCOc2ccc([N+](=O)[O-])cc2Cl)c1	41.1	–	29.1 µM [rising, single point]
NC(=O)C1(N2CCCCC2)CCN(C(=O)c2cccn3c(=O)c4cc(Cl)ccc4nc23)CC1	–	–	0.731 µM [rising, single point]
Cc1ccc2nc(NC(=O)CN3C(=O)C4CC=CCC4C3=O)sc2c1 (configuration not stated)	-27	–	–
O=C(Nc1cccc(Br)c1)c1ccc(CN2CCc3ccccc3C2)cc1	-3	4.11 µM [falling, single point]	6.51 µM [falling, single point]
CC(NC(=O)CNC(=O)C1O[C@@H]2OC(C)(C)O[C@@H]2[C@H]2OC(C)(C)O[C@@H]12)C(=O)O (some centres not stated)	-10.6	7.31 µM [falling, partial curve, poor fit]	–

One compound at a time, as listed above.
Cc1ccc2nc(NC(=O)CN3C(=O)C4CC=CCC4C3=O)sc2c1 (configuration not stated) is entered as cell number change [%]: -27
Cc1cc(C(=O)OCC(=O)NCc2ccc(Cl)cc2)c(C)o1 is entered as cell number change [%]: 20.4
